Data on one substance can be found in article PMC11178824.

Protein sequences, listed by entry. Tags and fused reporters are not part of them. Residues count along the entry.
UniProt P62140, residues 6-327: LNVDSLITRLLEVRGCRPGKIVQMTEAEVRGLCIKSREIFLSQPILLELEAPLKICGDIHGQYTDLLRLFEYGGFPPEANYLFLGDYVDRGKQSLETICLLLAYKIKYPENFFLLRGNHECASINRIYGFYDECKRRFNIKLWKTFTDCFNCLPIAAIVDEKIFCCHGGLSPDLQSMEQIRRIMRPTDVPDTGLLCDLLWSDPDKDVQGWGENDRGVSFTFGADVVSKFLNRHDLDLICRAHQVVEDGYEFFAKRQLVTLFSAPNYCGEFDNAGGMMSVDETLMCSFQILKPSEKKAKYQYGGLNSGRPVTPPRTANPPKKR
UniProt P02769, residues 25-607: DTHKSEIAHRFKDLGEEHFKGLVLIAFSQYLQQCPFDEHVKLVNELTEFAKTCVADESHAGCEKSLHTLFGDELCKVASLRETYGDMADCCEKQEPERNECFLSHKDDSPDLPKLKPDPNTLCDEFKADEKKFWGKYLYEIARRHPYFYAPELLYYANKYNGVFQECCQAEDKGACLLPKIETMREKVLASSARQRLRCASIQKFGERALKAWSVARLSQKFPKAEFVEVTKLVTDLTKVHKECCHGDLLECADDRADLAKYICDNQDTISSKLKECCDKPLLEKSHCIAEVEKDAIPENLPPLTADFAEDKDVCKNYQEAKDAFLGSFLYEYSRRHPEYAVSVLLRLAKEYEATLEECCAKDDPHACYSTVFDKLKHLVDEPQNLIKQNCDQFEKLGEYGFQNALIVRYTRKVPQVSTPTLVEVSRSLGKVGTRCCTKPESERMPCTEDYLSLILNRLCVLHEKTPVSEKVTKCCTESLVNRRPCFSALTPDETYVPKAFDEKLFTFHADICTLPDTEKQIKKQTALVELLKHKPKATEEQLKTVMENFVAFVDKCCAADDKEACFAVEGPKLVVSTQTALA

No constants are given. Whether binding was seen depends on the method and setting.

For this test, the target named is His6-tagged catalytic subunit of protein phosphatase 1, PP1β 6-327 (UniProt P62140). Description: pull-down; His6-PP1 (75 μL of 5 μM) as bait on Ni-NTA resin with 100 μL of 1 μM A647-C1mC2 or A647-BSA; PBS pH 7.5, 500 mM NaCl, 0.01% tween-20, 40 mM imidazole, 0.5 mM MnCl2, 2 mM DTT; 45 min at RT; A647 signal of the bound fraction on SDS-PAGE; both purified.

“Alexa647-labeled BSA (from UniProt P02769 25-607)”: the binding entry was “no binding (tested: 100 μL of 1 μM A647-BSA)”.
